The other results are listed elsewhere or left out. Further columns of the screen follow, without active or inactive calls. Compounds called inactive in the main read-out are mostly missing here. Words in brackets tell the shape of the fitted curve; partial curves, single points and poor fits give uncertain potencies.

A word on the AC50: it is the midpoint of the concentration-response curve, whichever way the signal moves.

This test in a line: qHTS Assay to Find Inhibitors of Chronic Active B-Cell Receptor Signaling. The note with it: ABC-DLBCL IkBa-CBG/CBR reporter, luminescence ratio (green luciferase fused to IkBa over red control in TMD8 lymphoma cells), 4 h; measured here: CBR red luminescence, cell number. The procedure, abridged: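 Compounds up to 46 uM were incubated four hours with TMD8 cells whose green CBG68 luciferase is fused to IkappaBalpha; red CBR luminescence normalised the signal, and concentration-effect curves were fitted to fusion, red and ratio data.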
A general note: qHTS replaces the single test concentration by a dilution series.
With `COCCCN(C(C)=O)c1nc(-c2ccccc2)cs1`, the AC50 was 0.259 µM [rising, full curve, poor fit].

As to `Clc1ccccc1C(c1nnnn1Cc1ccco1)N1CCN(Cc2ccco2)CC1` (configuration not stated), the AC50 was 35.5 µM [falling, single point].

On to `COc1ccc(NC(=O)c2oc3ccccc3c2NC(=O)c2ccco2)cc1`, for which the AC50 is 23.1 µM [falling, partial curve, poor fit].

`CCCCn1c(N)c(N(CC)C(=O)c2ccccc2C)c(=O)[nH]c1=O`: the AC50 was 3.16 µM [rising, full curve].

For `Cc1nc2cccc(C(=O)NCc3ccccc3)c2o1`, the AC50 is 10 µM [falling, partial curve].

`O=C(CCl)Nc1ccc(Oc2cnc3ccccc3n2)cc1`: the AC50 is 10 µM [falling, partial curve].

Turning to `Cc1cc(C)c(NC(=O)C2CCCCN2C)c(C)c1` (configuration not stated), the AC50 is 0.259 µM [falling, full curve, poor fit].

Regarding `CCC1CCCCN1C(=S)NC(=O)c1ccco1` (configuration not stated), the AC50 was 29.1 µM [falling, single point].

On to `Clc1ccc(-c2nnc(-c3ccccc3)nc2N2CCSCC2)cc1`, for which the AC50 is 9.2 µM [falling, partial curve, poor fit].

Turning to `Cc1ccccc1N=C1NC(=O)/C(=C/c2cccnc2)S1`, the AC50 was 7.08 µM [falling, partial curve].

`COc1ccccc1CN(Cc1nc2ccccc2c(=O)[nH]1)C(=O)Nc1cccc(C)c1`: the AC50 is 14.6 µM [falling, single point].

Take `Cc1cccc(/C=C2\Sc3ccc(C(=O)N4CCOCC4)cc3N(C)C2=O)c1`: the AC50 was 20 µM [falling, single point].

For `COC(=O)CN(c1nc(C)cc(OC)n1)S(=O)(=O)c1ccccc1`, the AC50 was 18.4 µM [rising, single point].

On to `O=C(CCc1ccccc1)Nc1ccc2c(c1)OCO2`, for which the AC50 was 0.0891 µM [rising, full curve, poor fit].

For the compound `O=[N+]([O-])c1cccnc1Oc1cccnc1`, the AC50 is 5.62 µM [falling, full curve].

For the compound `Cn1c(=O)c2cc(S(=O)(=O)NCCC(=O)NCCc3ccc(Cl)cc3)ccc2n(C)c1=O`, the AC50 is 1.78 µM [falling, partial curve].

Take `CC(C)[C@H](NC(=O)c1ccccc1)C(=O)OCC(=O)Nc1ncc(Cl)cc1Cl`: the AC50 is 16.4 µM [rising, partial curve].

For `COc1ccc2c(=O)c3c(=O)n(CCc4ccccc4)c(C(C)C)nc3oc2c1`, the AC50 was 35.5 µM [falling, single point].

As for `CCCCOC(=O)c1ccc(NC(=O)COC(=O)C2CSC3(C)CCC(=O)N23)cc1` (configuration not stated), the AC50 was 0.00461 µM [rising, full curve, poor fit].

Take `O=C(O)c1ccccc1NC(=O)c1ccccc1Nc1ccccc1`: the AC50 is 2.82 µM [falling, partial curve].

For `Cc1ccccc1NC(=O)c1ccc(Cl)c(NC(=O)c2cccnc2)c1`, the AC50 was 10 µM [falling, partial curve, poor fit].

On to `COC(=O)c1ccccc1NC(=O)C(=O)NCC1CCCO1` (configuration not stated), for which the AC50 is 2.06 µM [falling, full curve].

As to `O=C(CCNC(=O)c1ccccc1Cl)Nc1nc(-c2ccc3ccccc3c2)cs1`, the AC50 is 18.4 µM [falling, partial curve].

As to `CCOC(=O)c1nn(-c2ccc3c(c2)CCN3C(C)=O)cc1O`, the AC50 is 11.2 µM [rising, partial curve, poor fit].

In the case of `CC(=O)c1c(C)[nH]c(C(=O)COC(=O)CCSc2ccccc2)c1C`, the AC50 is 20.6 µM [rising, partial curve, poor fit].

`COc1ccc(CNC(=O)C(=O)c2cn(CC(=O)N3CCCC3)c3ccccc23)cc1`: the AC50 was 1 µM [falling, full curve].

Turning to `Cc1ccc(OCCCC(=O)Nc2ccc(S(=O)(=O)Nc3cc(C)nc(C)n3)cc2)cc1`, the AC50 was 17.8 µM [rising, partial curve, poor fit].

In the case of `COc1ccc(-c2csc(NC(=O)Cn3nc(C)cc3C)n2)cc1`, the AC50 is 35.5 µM [falling, single point].

With `COc1cccc2[nH]c3c(N4CCC(C)CC4)ncnc3c12`, the AC50 was 2.82 µM [falling, full curve].

`CC1(C)C2CCC1(C)C(NC(=O)/C=C/c1ccccc1)C2` (configuration not stated): the AC50 is 4.47 µM [rising, single point].

`COCCN(Cc1cc2cc3c(cc2nc1Cl)OCO3)C(C)=O`: the AC50 is 0.891 µM [falling, full curve].

For `CC(C)c1ccc(OCC(=O)NNC(=S)NC(=O)C2CC2)cc1`, the AC50 is 15.8 µM [rising, single point].

With `NC(=O)NC(CC(=O)NCCc1ccc(S(N)(=O)=O)cc1)c1ccc(Cl)cc1` (configuration not stated), the AC50 is 6.31 µM [falling, single point].

Regarding `CCOC(=O)N1CCC(=NNc2nc3ccccc3s2)CC1`, the AC50 was 35.5 µM [falling, single point].

For `N#Cc1nc(-c2ccco2)oc1N1CCN(c2cccc(Cl)c2)CC1`, the AC50 is 0.164 µM [rising, full curve, poor fit].

Consider `Cc1ccc(SCC(=O)OCC(=O)N(C)CC(=O)Nc2ccc(F)cc2)cc1C`, for which the AC50 was 5.8 µM [falling, full curve].

`O=C(Nc1ccccc1)/C(=C\c1ccco1)NC(=O)c1ccco1`: the AC50 is 35.5 µM [falling, single point].

With `O=C(CN1C(=O)C2CC=CCC2C1=O)N1CCN(c2ccc([N+](=O)[O-])cc2)CC1` (configuration not stated), the AC50 is 5.62 µM [rising, full curve, poor fit].

Take `Cc1cccc(-c2nc(C#N)c(NCC3CCCO3)o2)c1` (configuration not stated): the AC50 was 4.47 µM [rising, single point].

On to `CCOCCCNC(=O)c1cc(Nc2ccc(OC)cc2OC)nc2ccccc12`, for which the AC50 was 11.2 µM [falling, partial curve, poor fit].

With `CCC(C)NC(=O)COC(=O)c1ccccc1OCC(=O)Nc1ccc(Br)cc1` (configuration not stated), the AC50 was 20.6 µM [falling, single point].

For `Cc1c(C(=O)Nc2ccccc2)csc1-c1ccccc1`, the AC50 is 14.6 µM [rising, partial curve, poor fit].

The values are drawn from PubChem BioAssay AID493014 (National Center for Advancing Translational Sciences (NCATS), 2011).
